# Results are given in words; binding and its absence hold for the method and conditions named.
# Chains of the proteins cited; added tags and fusions are not shown. Residues count along the entry.
# UniProt Q04609, residues 44-750: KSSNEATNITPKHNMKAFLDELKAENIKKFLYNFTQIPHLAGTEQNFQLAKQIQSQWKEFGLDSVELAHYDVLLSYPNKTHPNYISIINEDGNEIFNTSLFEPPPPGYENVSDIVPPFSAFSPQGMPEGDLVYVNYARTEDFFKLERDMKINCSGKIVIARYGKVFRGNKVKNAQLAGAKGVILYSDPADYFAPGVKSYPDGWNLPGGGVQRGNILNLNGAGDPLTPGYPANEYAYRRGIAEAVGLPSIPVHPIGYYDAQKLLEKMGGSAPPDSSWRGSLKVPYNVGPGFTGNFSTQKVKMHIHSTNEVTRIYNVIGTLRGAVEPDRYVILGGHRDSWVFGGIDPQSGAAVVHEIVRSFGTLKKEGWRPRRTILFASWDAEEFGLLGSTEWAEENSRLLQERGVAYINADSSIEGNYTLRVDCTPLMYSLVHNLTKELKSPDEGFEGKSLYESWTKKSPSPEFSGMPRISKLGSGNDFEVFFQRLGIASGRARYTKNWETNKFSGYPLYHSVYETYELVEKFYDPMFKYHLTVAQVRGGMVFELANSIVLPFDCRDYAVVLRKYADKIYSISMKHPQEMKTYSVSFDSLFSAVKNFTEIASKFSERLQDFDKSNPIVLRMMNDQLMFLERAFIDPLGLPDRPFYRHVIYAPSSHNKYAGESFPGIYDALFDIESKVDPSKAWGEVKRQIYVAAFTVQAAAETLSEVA
# Target: His-tagged PSMA (PSMA-His6), soluble ectodomain of prostate-specific membrane antigen (human) (UniProt Q04609)
# Experiment: AlphaScreen or HTRF; competition: 563-biotin on streptavidin donor beads, PSMA-His6 on nickel chelate acceptor beads, unlabeled peptide at various concentrations; ambient temperature; 25 mM HEPES, 100 mM NaCl, pH 7.4; IC50 used to approximate KD; both purified
binder,measurement,value
ARMFLLFLMRCIGCY (Cys(Acm)) [Peptide 565],binding,no binding (tested: 4.83 µM)

# From article PMC3723849, “Evaluation of Phage Display Discovered Peptides as Ligands for Prostate-Specific Membrane Antigen (PSMA)” (PLoS ONE, 2013)
